# Data published in the supplement of paper PMC10849652.
# Chains of the proteins cited; added tags and fusions are not shown. Lines headed by an entry give the natural chain unless they say otherwise; changes in a name come on top.
# UniProt O95989: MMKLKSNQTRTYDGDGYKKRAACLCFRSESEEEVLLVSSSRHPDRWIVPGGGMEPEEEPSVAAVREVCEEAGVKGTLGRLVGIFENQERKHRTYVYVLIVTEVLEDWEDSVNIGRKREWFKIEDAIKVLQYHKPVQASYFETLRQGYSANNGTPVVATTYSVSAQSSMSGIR
# UniProt P57740: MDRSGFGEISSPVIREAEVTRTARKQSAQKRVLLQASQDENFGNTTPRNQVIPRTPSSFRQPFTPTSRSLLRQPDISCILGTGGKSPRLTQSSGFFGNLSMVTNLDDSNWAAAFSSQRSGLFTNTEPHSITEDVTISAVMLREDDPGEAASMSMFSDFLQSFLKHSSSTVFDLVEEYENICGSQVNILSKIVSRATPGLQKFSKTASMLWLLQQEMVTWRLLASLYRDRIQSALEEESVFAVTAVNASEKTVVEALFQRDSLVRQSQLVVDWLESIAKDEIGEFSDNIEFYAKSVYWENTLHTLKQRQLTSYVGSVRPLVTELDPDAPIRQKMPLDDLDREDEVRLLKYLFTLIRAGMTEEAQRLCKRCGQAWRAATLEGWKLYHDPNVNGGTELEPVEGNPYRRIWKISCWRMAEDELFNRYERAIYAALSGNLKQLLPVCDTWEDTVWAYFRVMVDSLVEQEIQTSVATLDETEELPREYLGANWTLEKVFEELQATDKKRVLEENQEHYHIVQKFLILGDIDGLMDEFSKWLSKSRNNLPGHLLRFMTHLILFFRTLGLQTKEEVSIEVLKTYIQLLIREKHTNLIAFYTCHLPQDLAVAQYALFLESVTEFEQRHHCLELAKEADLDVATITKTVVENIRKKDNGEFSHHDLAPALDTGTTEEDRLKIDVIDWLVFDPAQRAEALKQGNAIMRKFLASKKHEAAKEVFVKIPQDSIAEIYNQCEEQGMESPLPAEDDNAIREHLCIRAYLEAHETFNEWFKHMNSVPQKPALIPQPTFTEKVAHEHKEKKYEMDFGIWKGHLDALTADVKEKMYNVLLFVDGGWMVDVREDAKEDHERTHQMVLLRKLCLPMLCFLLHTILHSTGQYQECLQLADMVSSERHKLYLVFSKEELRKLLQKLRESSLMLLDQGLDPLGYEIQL
# UniProt P78316: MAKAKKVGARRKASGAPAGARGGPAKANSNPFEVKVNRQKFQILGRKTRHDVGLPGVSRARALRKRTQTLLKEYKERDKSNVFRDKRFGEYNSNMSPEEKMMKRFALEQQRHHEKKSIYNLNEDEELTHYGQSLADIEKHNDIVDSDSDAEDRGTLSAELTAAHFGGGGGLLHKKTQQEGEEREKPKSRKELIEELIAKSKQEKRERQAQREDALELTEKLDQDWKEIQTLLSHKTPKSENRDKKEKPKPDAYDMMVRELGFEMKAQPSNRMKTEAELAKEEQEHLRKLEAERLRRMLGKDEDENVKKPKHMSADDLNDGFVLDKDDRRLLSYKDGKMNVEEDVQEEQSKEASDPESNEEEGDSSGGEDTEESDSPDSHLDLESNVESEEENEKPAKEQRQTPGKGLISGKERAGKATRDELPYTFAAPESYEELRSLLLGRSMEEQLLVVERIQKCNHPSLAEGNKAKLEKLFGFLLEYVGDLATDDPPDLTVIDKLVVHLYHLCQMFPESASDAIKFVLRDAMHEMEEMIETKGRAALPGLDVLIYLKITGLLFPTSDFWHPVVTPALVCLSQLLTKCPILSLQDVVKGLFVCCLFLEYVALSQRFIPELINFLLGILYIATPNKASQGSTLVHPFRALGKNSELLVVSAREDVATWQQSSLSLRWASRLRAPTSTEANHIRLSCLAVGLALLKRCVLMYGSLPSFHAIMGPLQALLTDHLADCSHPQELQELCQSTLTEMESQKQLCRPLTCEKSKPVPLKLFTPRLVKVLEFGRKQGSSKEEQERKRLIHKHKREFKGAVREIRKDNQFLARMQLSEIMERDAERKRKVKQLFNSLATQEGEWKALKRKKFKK
# UniProt Q9UMY1: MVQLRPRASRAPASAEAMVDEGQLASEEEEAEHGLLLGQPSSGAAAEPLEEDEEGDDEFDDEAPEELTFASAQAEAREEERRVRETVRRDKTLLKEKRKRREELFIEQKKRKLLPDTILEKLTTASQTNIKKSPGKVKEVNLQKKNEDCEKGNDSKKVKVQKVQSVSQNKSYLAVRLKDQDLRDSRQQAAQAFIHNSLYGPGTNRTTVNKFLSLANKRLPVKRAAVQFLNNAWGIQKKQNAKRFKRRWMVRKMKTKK
# UniProt P04150: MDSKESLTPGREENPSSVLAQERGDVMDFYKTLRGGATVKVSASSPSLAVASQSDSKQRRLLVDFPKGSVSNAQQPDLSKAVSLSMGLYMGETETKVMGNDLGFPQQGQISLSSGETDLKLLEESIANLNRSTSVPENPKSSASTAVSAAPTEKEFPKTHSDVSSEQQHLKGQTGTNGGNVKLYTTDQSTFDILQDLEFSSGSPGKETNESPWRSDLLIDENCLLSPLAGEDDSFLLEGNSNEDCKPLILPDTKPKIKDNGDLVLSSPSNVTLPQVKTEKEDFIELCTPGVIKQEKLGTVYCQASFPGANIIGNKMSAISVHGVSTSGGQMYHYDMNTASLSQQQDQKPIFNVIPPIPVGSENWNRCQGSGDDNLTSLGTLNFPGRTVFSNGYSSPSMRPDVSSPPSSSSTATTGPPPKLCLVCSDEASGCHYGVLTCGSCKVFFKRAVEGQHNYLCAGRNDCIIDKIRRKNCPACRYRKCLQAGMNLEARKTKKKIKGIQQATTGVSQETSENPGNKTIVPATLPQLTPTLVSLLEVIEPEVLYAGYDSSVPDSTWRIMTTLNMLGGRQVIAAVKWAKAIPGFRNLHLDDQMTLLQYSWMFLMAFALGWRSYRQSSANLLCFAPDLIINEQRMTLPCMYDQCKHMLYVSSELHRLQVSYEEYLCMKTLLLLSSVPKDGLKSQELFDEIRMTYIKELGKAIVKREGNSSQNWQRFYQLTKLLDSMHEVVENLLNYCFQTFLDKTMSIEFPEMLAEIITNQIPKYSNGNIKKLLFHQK
# UniProt Q9UNZ2: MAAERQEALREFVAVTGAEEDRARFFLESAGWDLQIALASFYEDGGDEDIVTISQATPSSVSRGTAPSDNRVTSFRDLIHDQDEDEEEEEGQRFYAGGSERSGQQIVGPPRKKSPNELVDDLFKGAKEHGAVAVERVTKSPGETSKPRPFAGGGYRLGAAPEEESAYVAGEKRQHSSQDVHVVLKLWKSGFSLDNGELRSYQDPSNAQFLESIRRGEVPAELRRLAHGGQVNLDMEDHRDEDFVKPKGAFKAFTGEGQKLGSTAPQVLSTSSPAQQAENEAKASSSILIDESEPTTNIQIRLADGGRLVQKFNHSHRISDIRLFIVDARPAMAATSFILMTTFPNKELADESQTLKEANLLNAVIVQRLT
# UniProt Q9UGY1: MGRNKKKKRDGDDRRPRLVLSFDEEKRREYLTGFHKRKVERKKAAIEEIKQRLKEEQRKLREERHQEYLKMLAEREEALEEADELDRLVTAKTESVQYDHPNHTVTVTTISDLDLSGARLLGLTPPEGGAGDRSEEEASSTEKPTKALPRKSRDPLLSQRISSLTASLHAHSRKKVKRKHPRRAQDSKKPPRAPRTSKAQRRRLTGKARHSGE
# UniProt Q92636: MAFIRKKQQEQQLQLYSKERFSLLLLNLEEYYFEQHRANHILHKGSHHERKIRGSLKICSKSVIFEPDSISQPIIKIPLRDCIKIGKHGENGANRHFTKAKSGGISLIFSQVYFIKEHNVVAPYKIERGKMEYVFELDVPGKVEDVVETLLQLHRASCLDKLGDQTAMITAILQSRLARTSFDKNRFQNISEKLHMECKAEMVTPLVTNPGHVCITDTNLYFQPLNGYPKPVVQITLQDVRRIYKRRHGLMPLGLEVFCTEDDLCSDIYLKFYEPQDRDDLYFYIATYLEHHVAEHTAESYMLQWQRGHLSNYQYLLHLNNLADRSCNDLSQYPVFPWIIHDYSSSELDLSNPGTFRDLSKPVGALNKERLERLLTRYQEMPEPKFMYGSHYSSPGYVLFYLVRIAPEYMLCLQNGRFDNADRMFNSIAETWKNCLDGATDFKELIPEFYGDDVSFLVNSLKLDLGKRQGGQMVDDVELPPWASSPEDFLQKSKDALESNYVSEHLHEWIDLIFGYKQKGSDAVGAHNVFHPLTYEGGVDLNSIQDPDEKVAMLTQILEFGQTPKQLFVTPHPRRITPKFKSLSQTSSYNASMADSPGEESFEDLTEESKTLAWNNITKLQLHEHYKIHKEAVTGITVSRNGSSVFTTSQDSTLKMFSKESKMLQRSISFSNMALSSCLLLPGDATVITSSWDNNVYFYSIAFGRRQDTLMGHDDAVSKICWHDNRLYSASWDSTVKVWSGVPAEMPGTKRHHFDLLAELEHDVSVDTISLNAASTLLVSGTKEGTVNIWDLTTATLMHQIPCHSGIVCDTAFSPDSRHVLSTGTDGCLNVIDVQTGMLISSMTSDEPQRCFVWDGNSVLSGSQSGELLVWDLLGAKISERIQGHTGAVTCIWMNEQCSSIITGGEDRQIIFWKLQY
# UniProt Q96P11: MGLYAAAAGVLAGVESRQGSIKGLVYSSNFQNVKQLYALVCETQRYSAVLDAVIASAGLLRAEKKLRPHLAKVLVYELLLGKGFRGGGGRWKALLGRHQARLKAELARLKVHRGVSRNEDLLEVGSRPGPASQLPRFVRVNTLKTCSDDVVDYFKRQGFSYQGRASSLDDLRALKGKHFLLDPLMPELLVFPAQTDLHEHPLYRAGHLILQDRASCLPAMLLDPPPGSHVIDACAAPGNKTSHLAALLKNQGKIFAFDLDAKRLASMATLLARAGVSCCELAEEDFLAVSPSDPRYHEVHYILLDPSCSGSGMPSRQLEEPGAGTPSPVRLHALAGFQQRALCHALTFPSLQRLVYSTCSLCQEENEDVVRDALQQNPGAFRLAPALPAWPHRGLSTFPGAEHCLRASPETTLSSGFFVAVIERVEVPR
# UniProt O75414: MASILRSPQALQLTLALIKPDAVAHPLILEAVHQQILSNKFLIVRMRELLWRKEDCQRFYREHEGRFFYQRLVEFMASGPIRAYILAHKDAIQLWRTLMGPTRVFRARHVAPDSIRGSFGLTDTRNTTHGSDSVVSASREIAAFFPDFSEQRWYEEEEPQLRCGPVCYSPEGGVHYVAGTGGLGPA
# UniProt Q15233: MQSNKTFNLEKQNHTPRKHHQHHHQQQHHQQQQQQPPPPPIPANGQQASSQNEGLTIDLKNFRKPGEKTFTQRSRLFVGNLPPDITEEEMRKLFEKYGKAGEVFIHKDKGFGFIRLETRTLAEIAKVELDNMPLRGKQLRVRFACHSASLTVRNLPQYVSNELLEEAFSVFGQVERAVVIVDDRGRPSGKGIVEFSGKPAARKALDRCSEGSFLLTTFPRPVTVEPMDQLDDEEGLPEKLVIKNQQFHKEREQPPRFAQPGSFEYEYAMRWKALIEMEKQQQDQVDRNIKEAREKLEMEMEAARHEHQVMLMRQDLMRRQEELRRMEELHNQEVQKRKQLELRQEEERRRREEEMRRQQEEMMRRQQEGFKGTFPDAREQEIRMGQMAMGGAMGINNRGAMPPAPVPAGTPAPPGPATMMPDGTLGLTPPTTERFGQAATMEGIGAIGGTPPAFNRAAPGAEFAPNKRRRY
# UniProt P40261: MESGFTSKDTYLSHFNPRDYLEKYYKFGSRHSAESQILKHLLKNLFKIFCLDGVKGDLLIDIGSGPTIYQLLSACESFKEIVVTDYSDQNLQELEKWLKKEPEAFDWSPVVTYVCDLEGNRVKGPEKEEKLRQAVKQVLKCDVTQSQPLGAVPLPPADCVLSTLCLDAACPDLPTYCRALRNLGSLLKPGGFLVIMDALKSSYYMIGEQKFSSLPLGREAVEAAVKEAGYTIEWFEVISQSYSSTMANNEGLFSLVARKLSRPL
# UniProt P78549: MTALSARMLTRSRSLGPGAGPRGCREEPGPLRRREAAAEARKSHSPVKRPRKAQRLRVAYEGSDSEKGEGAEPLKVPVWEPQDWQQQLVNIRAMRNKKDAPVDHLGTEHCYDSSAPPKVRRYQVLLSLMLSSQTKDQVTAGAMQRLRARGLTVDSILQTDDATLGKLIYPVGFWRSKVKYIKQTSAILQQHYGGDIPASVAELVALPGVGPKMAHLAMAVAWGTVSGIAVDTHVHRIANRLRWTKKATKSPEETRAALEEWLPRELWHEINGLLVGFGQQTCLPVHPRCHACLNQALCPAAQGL
# This is one part of the list.
# Experiments:
# Experiment in all cases: log2 fold change, soluble protein after heating vs DMSO (PISA); higher = thermal stabilisation; K562 lysate, 10 uM; active = over 0.2 and 3.5 SD of the protein, either way, in both replicates (recomputed)
# vemurafenib = compound: CCCS(=O)(=O)Nc1ccc(F)c(C(=O)c2c[nH]c3ncc(-c4ccc(Cl)cc4)cc23)c1F [vemurafenib]
# Procedure, shortened: (§1)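 Pellets of K562 cells were dounce-homogenised in PBS pH 7.4 with 1 mM MgCl2, and the crude extract was held at 1 mg/mL protein for a 30 min treatment with 10 μM compound. Aliquots were heated for 3 min over 48°C-58°C and pooled before NP-40 was added to 0.5% at 4°C. The supernatant from 21,000xg for 90 min was quantified by TMTpro 16plex LC-MS/MS with channel sums equalised. Values are reported from duplicates as log-two fold change in thermal stability relative to solvent controls.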
# [1] = compound: CCCS(=O)(=O)Nc1ccc(F)c(C(=O)c2c[nH]c3ncc(Cl)cc23)c1F
# Procedure, shortened: as §1
# barasertib = compound: CCN(CCCOc1ccc2c(Nc3cc(CC(=O)Nc4cccc(F)c4)[nH]n3)ncnc2c1)CCOP(=O)(O)O [barasertib]
# Procedure, shortened: as §1
# [2] = compound: CC[C@@H]1C(=O)N(C)c2cnc(Nc3ccc(C(=O)NC4CCN(C)CC4)cc3OC)nc2N1C1CCCC1
# Procedure, shortened: as §1
# volasertib = compound: CC[C@@H]1C(=O)N(C)c2cnc(Nc3ccc(C(=O)N[C@H]4CC[C@H](N5CCN(CC6CC6)CC5)CC4)cc3OC)nc2N1C(C)C [volasertib]
# Procedure, shortened: as §1
# [3] = compound: CCn1c(C(=O)N(C2CC2)C2CC2)cc2c3c(ncn3C)c(Nc3cc(C)n(C)n3)nc21
# Procedure, shortened: as §1
# [4] = compound: CCn1cc(-c2ccnc3[nH]c(-c4cccc(CN(C)C)c4)cc23)c(-c2ccc(NC(=O)N(C)C)cc2)n1
# Procedure, shortened: as §1
# [5] = compound: CN1CCC(CNc2ccc3ncc(-c4cccc(OC(F)(F)F)c4)n3n2)CC1
# Procedure, shortened: as §1
# saracatinib = compound: CN1CCN(CCOc2cc(OC3CCOCC3)c3c(Nc4c(Cl)ccc5c4OCO5)ncnc3c2)CC1 [saracatinib]
# Procedure, shortened: as §1
# sotrastaurin = compound: CN1CCN(c2nc(C3=C(c4c[nH]c5ccccc45)C(=O)NC3=O)c3ccccc3n2)CC1 [sotrastaurin]
# Procedure, shortened: as §1
# alvocidib = compound: CN1CC[C@H](c2c(O)cc(O)c3c(=O)cc(-c4ccccc4Cl)oc23)[C@H](O)C1 [alvocidib]
# Procedure, shortened: as §1
# Tubastatin A = compound: CN1CCc2c(c3ccccc3n2Cc2ccc(C(=O)NO)cc2)C1 [Tubastatin A]
# Procedure, shortened: as §1
# [6] = compound: CNC(=O)C1=CC=CC=C1NC2=NC(=NC=C2Cl)NC3=C(C=C(C=C3)N4CCOCC4)OC
# Procedure, shortened: as §1
# defactinib = compound: CNC(=O)c1ccc(Nc2ncc(C(F)(F)F)c(NCc3nccnc3N(C)S(C)(=O)=O)n2)cc1 [defactinib]
# Procedure, shortened: as §1
# [7] = compound: CNc1nc(-c2ccc3c(N)n[nH]c3c2)cc(N2C[C@@H](C(=O)NC3CCCCC3)CC[C@H]2C)n1
# Procedure, shortened: as §1
# encorafenib = compound: COC(=O)N[C@@H](C)CNc1nccc(-c2cn(C(C)C)nc2-c2cc(Cl)cc(NS(C)(=O)=O)c2F)n1 [encorafenib]
# Procedure, shortened: as §1
# [8] = compound: COC(=O)[C@H](CCSC)NC(=O)C1=C(C=C(C=C1)NC[C@H](CS)N)C2=CC=CC=C2
# Procedure, shortened: as §1
# alisertib = compound: COc1cc(Nc2ncc3c(n2)-c2ccc(Cl)cc2C(c2c(F)cccc2OC)=NC3)ccc1C(=O)O [alisertib]
# Procedure, shortened: as §1
# [9] = compound: COc1cc2nc(-c3cc(F)ccc3O)nc(N[C@@H]3CNC[C@H]3C(C)(C)O)c2cc1OC
# Procedure, shortened: as §1
# gefitinib = compound: COc1cc2ncnc(Nc3ccc(F)c(Cl)c3)c2cc1OCCCN1CCOCC1 [gefitinib]
# Procedure, shortened: as §1
Target,log2 fold change (vemurafenib),log2 fold change [1],log2 fold change (barasertib),log2 fold change [2],log2 fold change (volasertib),log2 fold change [3],log2 fold change [4],log2 fold change [5],log2 fold change (saracatinib),log2 fold change (sotrastaurin),log2 fold change (alvocidib),log2 fold change (Tubastatin A),log2 fold change [6],log2 fold change (defactinib),log2 fold change [7],log2 fold change (encorafenib),log2 fold change [8],log2 fold change (alisertib),log2 fold change [9],log2 fold change (gefitinib)
NUDT1 (UniProt P36639),inactive: 0.013,inactive: 0.024,inactive: -0.002,inactive: 0.12,inactive: 0.079,inactive: -0.012,inactive: -0.038,inactive: 0.039,inactive: 0.028,inactive: 0.028,inactive: -0.014,inactive: -0.025,inactive: -0.05,inactive: -0.028,inactive: 0.009,inactive: -0.03,inactive: -0.038,inactive: 0,inactive: -0.035,inactive: 0.01
NUDT3 (UniProt O95989),inactive: -0.017,inactive: -0.013,inactive: -0.012,inactive: 0.004,inactive: 0.002,inactive: 0.049,inactive: 0.054,inactive: 0.113,inactive: 0.022,inactive: -0.05,inactive: -0.015,inactive: -0.012,inactive: -0.018,inactive: -0.001,inactive: -0.008,inactive: 0.009,inactive: -0.04,inactive: 0.042,inactive: -0.007,inactive: -0.009
NUP107 (UniProt P57740),inactive: 0.039,inactive: 0.014,inactive: -0.013,inactive: -0.001,inactive: -0.08,inactive: 0.039,inactive: -0.065,inactive: 0.02,inactive: 0.014,inactive: 0.049,inactive: 0.003,inactive: -0.179,inactive: 0.044,inactive: -0.028,inactive: -0.021,inactive: 0.069,inactive: -0.037,inactive: -0.009,inactive: 0.004,inactive: -0.021
NUF2 (UniProt Q9BZD4),inactive: -0.01,inactive: 0.016,inactive: 0.048,inactive: -0.126,inactive: -0.029,inactive: 0.016,inactive: -0.069,inactive: -0.101,inactive: 0.032,inactive: 0.03,inactive: 0,inactive: -0.13,inactive: 0.03,inactive: 0.021,inactive: -0.007,inactive: 0.027,active: 0.264,inactive: -0.012,inactive: 0.013,inactive: -0.033
NOP14 (UniProt P78316),inactive: 0.027,inactive: -0.014,inactive: -0.034,inactive: -0.036,inactive: -0.009,inactive: 0.024,inactive: 0.012,inactive: 0.016,inactive: 0.034,inactive: 0.023,inactive: -0.014,inactive: -0.029,inactive: 0.01,inactive: 0.051,inactive: 0.021,inactive: 0.028,inactive: 0.134,inactive: 0.02,inactive: -0.023,inactive: -0.007
NOL7 (UniProt Q9UMY1),inactive: -0.016,inactive: -0.044,inactive: -0.004,inactive: 0.014,inactive: 0.02,inactive: 0.004,inactive: 0.123,inactive: -0.108,inactive: -0.053,inactive: 0.023,inactive: 0.08,inactive: -0.01,inactive: 0.018,inactive: -0.023,inactive: 0.093,inactive: 0.051,inactive: 0.018,inactive: 0.011,inactive: -0.037,inactive: 0.047
NR3C1 isoform 3 (UniProt P04150),inactive: -0.138,inactive: 0.027,inactive: -0.385,inactive: -0.086,inactive: -0.046,inactive: 0.001,inactive: 0.07,inactive: -0.081,inactive: 0.072,inactive: -0.016,inactive: -0.004,inactive: -0.088,inactive: 0.048,inactive: 0.021,inactive: -0.093,inactive: 0.05,inactive: 0.029,inactive: 0.045,inactive: -0.001,inactive: 0.013
NSFL1C isoform 5 (UniProt Q9UNZ2),inactive: -0.025,inactive: 0.006,inactive: -0.041,inactive: 0.023,inactive: 0.016,inactive: -0.002,inactive: -0.031,inactive: 0.025,inactive: 0.002,inactive: 0.019,inactive: 0.043,inactive: 0.035,inactive: 0.017,inactive: 0.004,inactive: -0.011,inactive: 0.01,inactive: -0.034,inactive: 0.011,inactive: -0.007,inactive: 0.009
NOL12 (UniProt Q9UGY1),inactive: 0.028,inactive: 0.029,inactive: 0.012,inactive: -0.026,inactive: -0.016,inactive: 0.008,inactive: -0.004,inactive: -0.043,inactive: 0.019,inactive: 0.013,inactive: 0.038,inactive: -0.014,inactive: -0.004,inactive: -0.036,inactive: 0.02,inactive: -0.027,inactive: 0.044,inactive: -0.058,inactive: 0.031,inactive: 0.098
NSMAF (UniProt Q92636),inactive: 0.002,inactive: 0.007,inactive: 0.015,inactive: 0.012,inactive: 0.001,inactive: -0.066,inactive: 0.002,inactive: 0.053,inactive: 0.022,inactive: 0.025,inactive: 0.009,inactive: 0.015,inactive: -0.015,inactive: 0.094,inactive: -0.014,inactive: 0.023,inactive: -0.029,inactive: -0.015,inactive: 0.012,inactive: 0.028
NSUN5 isoform 2 (UniProt Q96P11),inactive: 0.002,inactive: 0.009,inactive: 0.08,inactive: -0.036,inactive: -0.04,inactive: 0.053,inactive: -0.074,inactive: -0.011,inactive: 0.012,inactive: 0.033,inactive: 0.029,inactive: -0.049,inactive: -0.015,inactive: 0.003,inactive: -0.08,inactive: 0.004,inactive: -0.005,inactive: -0.004,inactive: 0.018,inactive: 0.038
NME6 (UniProt O75414),inactive: 0.057,inactive: -0.045,inactive: -0.001,inactive: 0.044,inactive: -0.019,inactive: 0.018,inactive: -0.082,inactive: 0.065,inactive: -0.057,inactive: -0.079,inactive: 0.087,inactive: 0.014,inactive: 0.006,inactive: 0.029,inactive: 0.04,inactive: 0.01,inactive: 0,inactive: 0.008,inactive: 0.042,inactive: -0.034
NONO (UniProt Q15233),inactive: -0.005,inactive: 0.018,inactive: -0.006,inactive: -0.032,inactive: -0.049,inactive: 0,inactive: 0.076,inactive: -0.043,inactive: 0.004,inactive: -0.015,inactive: 0.049,inactive: -0.126,inactive: 0.04,inactive: -0.01,inactive: 0.014,inactive: 0.011,inactive: 0.102,inactive: 0.026,inactive: -0.004,inactive: 0.007
NNMT (UniProt P40261),inactive: 0.024,inactive: -0.036,inactive: -0.059,inactive: 0.008,inactive: 0.056,inactive: 0.015,inactive: -0.062,inactive: 0.03,inactive: -0.043,inactive: 0.021,inactive: -0.001,inactive: -0.03,inactive: 0,inactive: -0.049,inactive: -0.086,inactive: 0.043,active: -0.317,inactive: 0,inactive: 0.009,inactive: 0.004
NTHL1 (UniProt P78549),inactive: 0.083,inactive: 0.061,inactive: -0.042,inactive: 0.101,inactive: 0.005,inactive: -0.069,inactive: -0.01,inactive: -0.224,inactive: -0.079,inactive: 0.097,inactive: -0.041,inactive: -0.073,inactive: -0.017,inactive: 0.172,inactive: -0.013,inactive: -0.222,inactive: 0.289,inactive: -0.097,inactive: 0.15,inactive: -0.001
NRBP2 (UniProt Q9NSY0),inactive: -0.026,inactive: -0.005,inactive: 0.027,inactive: -0.007,inactive: 0.025,inactive: -0.016,inactive: 0.071,inactive: -0.188,inactive: 0,inactive: -0.064,inactive: -0.027,inactive: 0.035,inactive: 0.03,inactive: -0.101,inactive: 0.004,inactive: 0.036,inactive: 0.033,inactive: 0.011,inactive: -0.01,inactive: 0.131

# Single records (already shown). Values in the order: log2 fold change (vemurafenib)	log2 fold change [1]	log2 fold change (barasertib)	log2 fold change [2]	log2 fold change (volasertib)	log2 fold change [3]	log2 fold change [4]	log2 fold change [5]	log2 fold change (saracatinib)	log2 fold change (sotrastaurin)	log2 fold change (alvocidib)	log2 fold change (Tubastatin A)	log2 fold change [6]	log2 fold change (defactinib)	log2 fold change [7]	log2 fold change (encorafenib)	log2 fold change [8]	log2 fold change (alisertib)	log2 fold change [9]	log2 fold change (gefitinib)
# NUDT3 (UniProt O95989) is entered as inactive: -0.017	inactive: -0.013	inactive: -0.012	inactive: 0.004	inactive: 0.002	inactive: 0.049	inactive: 0.054	inactive: 0.113	inactive: 0.022	inactive: -0.05	inactive: -0.015	inactive: -0.012	inactive: -0.018	inactive: -0.001	inactive: -0.008	inactive: 0.009	inactive: -0.04	inactive: 0.042	inactive: -0.007	inactive: -0.009
# NOP14 (UniProt P78316) is entered as inactive: 0.027	inactive: -0.014	inactive: -0.034	inactive: -0.036	inactive: -0.009	inactive: 0.024	inactive: 0.012	inactive: 0.016	inactive: 0.034	inactive: 0.023	inactive: -0.014	inactive: -0.029	inactive: 0.01	inactive: 0.051	inactive: 0.021	inactive: 0.028	inactive: 0.134	inactive: 0.02	inactive: -0.023	inactive: -0.007
